Taken from: PubChem BioAssay AID1259264 (Sanger Institute, 2017)
Purpose: 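Kinases whose loss cuts CL40 colorectal cancer cell survival, alone or with drugs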 (primary screen). Cell system: CL40 human colorectal cancer cells. Reagent: siRNA pool against human genes. Challenge: DMSO, or an anchor drug: BYL719 at 1 µM, cetuximab at 5 µg/ml, or trametinib at 10 nM. Measured: 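Replicate-mean viability versus a non-targeting pool, robust z-score from control wells, and mean synergy with BYL719 1 µM, cetuximab 5 µg/ml or trametinib 10 nM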. Direction: robust z-score, siRNA alone and viability, siRNA alone: higher = more viable cells. Hit rule: 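a gene counts as essential when knock-down without drug gives a robust z-score below -3, meaning fewer cells; synergy scores play no part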. Calls: active = essential (lowers viability alone); inactive = not essential.
The deposit covers 794 reagents; this is a part drawn at random. Of all reagents, 15 (1.9%) were called active. 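Calls rest on knock-down alone at z-score below -3; synergy scores with the three drugs do not decide them.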 No viability above 1 is reported: the scale is capped. Not all columns of the deposit are shown. Reagent sequences are not shown. Not given: the amount of reagent, the time to read-out.

Gene,"robust z-score, siRNA alone","viability, siRNA alone (fraction of control)",outcome
MST1R,0.539,1,inactive
AKAP9,0.539,1,inactive
MECOM,0.539,1,inactive
NEK1,0.197,0.975,inactive
RPS6KA3,0.539,1,inactive
FGFR1,0.539,1,inactive
MYO3A,-0.648,0.915,inactive
RYK,0.0555,0.965,inactive
CHKB,0.539,1,inactive
MARK4,0.539,1,inactive
CAMK1D,0.539,1,inactive
ERBB2,0.539,1,inactive
EPHA6,0.148,0.972,inactive
CDKL3,0.539,1,inactive
CKS1B,0.0137,0.962,inactive
ABL2,0.539,1,inactive
PRPS2,0.539,1,inactive
PFKP,-0.00919,0.961,inactive
PKMYT1,0.382,0.989,inactive
SOS2,0.539,1,inactive
FN3KRP,-1.08,0.884,inactive
BMPR1A,0.539,1,inactive
RBM10,-0.444,0.929,inactive
CDKN2B,0.539,1,inactive
ULK1,-0.0348,0.959,inactive
EPHA10,-1.13,0.88,inactive
NUCKS1,0.539,1,inactive
JAK1,0.539,1,inactive
MAST1,0.539,1,inactive
PCK1,-0.439,0.93,inactive
BRAF,-2.64,0.772,inactive
PRKAA2,-0.228,0.945,inactive
IP6K3,-0.304,0.94,inactive
NEK2,0.384,0.989,inactive
RBKS,0.539,1,inactive
PRKCH,0.539,1,inactive
DAPK3,0.216,0.977,inactive
BMPR2,0.453,0.994,inactive
MYLK4,-1.24,0.872,inactive
TGFBR1,0.539,1,inactive
DUSP21,0.539,1,inactive
GRK6,0.539,1,inactive
BMP2K,0.539,1,inactive
GTF2H1,-0.739,0.908,inactive
PRAG1,-0.0693,0.956,inactive
MASTL,-0.144,0.951,inactive
BCR,-0.978,0.891,inactive
ACVR1,0.26,0.98,inactive
NRK,0.539,1,inactive
NIM1K,0.539,1,inactive

Limited to “robust z-score, siRNA alone” (7 entries from above):
JAK1: 0.539
MAST1: 0.539
PCK1: -0.439
BRAF: -2.64
PRKAA2: -0.228
IP6K3: -0.304
NEK2: 0.384
